Laboratory results from US11090319B2, “Therapeutic uses of pharmaceutical compositions comprising cyclic boronic acid ester derivatives” (Melinta Subsidiary Corp., priority 2010, dated 2021).
The name of at least one read-out is uncertain.

Legend:
[1] = test system: strains expressing class A ESBLs; assay type: cell-based
[2] = test system: strains expressing class C and D enzymes; assay type: cell-based
EC1007 KPC-3 = assay type: cell-based, Escherichia coli

| Compound | AZT MPC4 CTX-M-14 KP1005 [1] | AZT MPC4 CTX-M-15 KP1009 [1] | AZT MPC4 SHV-5 ec308 [1] | AZT MPC4 SHV-12 KP1010 [1] | AZT MPC4 SHV-18 KP1012 [1] | AZT MPC4 TEM-10 EC1009 [1] | AZT MPC4 TEM-10 ec302 [1] | AZT MPC4 TEM-26 ec304 [1] | AZT MPC@4 CMY-6 EC1010 [2] | AZT MPC@4 ECL1002 [2] | AZT MPC@4 OXA-2, KPX1001 [2] | AZT MPC@4 OXA-10, qnrB4 KP1007 [2] | AZT MPC@4 PAM2035 [2] | AZT MPC4 KPC-3 EC1007 (EC1007 KPC-3) |
| --- | --- | --- | --- | --- | --- | --- | --- | --- | --- | --- | --- | --- | --- | --- |
| O=C(O)C[C@@H]1CC[C@H](NC(=O)C[C@H]2CCCCN2)B(O)O1 [Compound 52, 2-((3R,6S)-2-hydroxy-3-(2-((R)-piperidin-2-yl)acetamido)-1,2-oxaborinan-6-yl)acetic acid] | Z (key: X: MPC@4 of less than 5 μg/mL; Y: MPC@4 of 5 μg/mL to 20 μg/mL; Z: MPC@4 of greater than 20 μg/mL) | Z (key: X: MPC@4 of less than 5 μg/mL; Y: MPC@4 of 5 μg/mL to 20 μg/mL; Z: MPC@4 of greater than 20 μg/mL) | Z (key: X: MPC@4 of less than 5 μg/mL; Y: MPC@4 of 5 μg/mL to 20 μg/mL; Z: MPC@4 of greater than 20 μg/mL) | Z (key: X: MPC@4 of less than 5 μg/mL; Y: MPC@4 of 5 μg/mL to 20 μg/mL; Z: MPC@4 of greater than 20 μg/mL) | Z (key: X: MPC@4 of less than 5 μg/mL; Y: MPC@4 of 5 μg/mL to 20 μg/mL; Z: MPC@4 of greater than 20 μg/mL) | Z (key: X: MPC@4 of less than 5 μg/mL; Y: MPC@4 of 5 μg/mL to 20 μg/mL; Z: MPC@4 of greater than 20 μg/mL) | Z (key: X: MPC@4 of less than 5 μg/mL; Y: MPC@4 of 5 μg/mL to 20 μg/mL; Z: MPC@4 of greater than 20 μg/mL) | Z (key: X: MPC@4 of less than 5 μg/mL; Y: MPC@4 of 5 μg/mL to 20 μg/mL; Z: MPC@4 of greater than 20 μg/mL) | Z (key: X: MPC@4 of less than 5 μg/mL; Y: MPC@4 of 5 μg/mL to 20 μg/mL; Z: MPC@4 of greater than 20 μg/mL) | Z (key: X: MPC@4 of less than 5 μg/mL; Y: MPC@4 of 5 μg/mL to 20 μg/mL; Z: MPC@4 of greater than 20 μg/mL) | Z (key: X: MPC@4 of less than 5 μg/mL; Y: MPC@4 of 5 μg/mL to 20 μg/mL; Z: MPC@4 of greater than 20 μg/mL) | Z (key: X: MPC@4 of less than 5 μg/mL; Y: MPC@4 of 5 μg/mL to 20 μg/mL; Z: MPC@4 of greater than 20 μg/mL) | Z (key: X: MPC@4 of less than 5 μg/mL; Y: MPC@4 of 5 μg/mL to 20 μg/mL; Z: MPC@4 of greater than 20 μg/mL) | X (key: X: MPC@4 of less than 5 μg/mL; Y: MPC@4 of 5 μg/mL to 20 μg/mL; Z: MPC@4 of greater than 20 μg/mL) |
| O=C(O)C[C@@H]1CC[C@H](NC(=O)C[C@@H]2CCCCN2)B(O)O1 [Compound 53, 2-((3R,6S)-2-hydroxy-3-(2-((S)-piperidin-2-yl)acetamido)-1,2-oxaborinan-6-yl)acetic acid] | Z (key: X: MPC@4 of less than 5 μg/mL; Y: MPC@4 of 5 μg/mL to 20 μg/mL; Z: MPC@4 of greater than 20 μg/mL) | Z (key: X: MPC@4 of less than 5 μg/mL; Y: MPC@4 of 5 μg/mL to 20 μg/mL; Z: MPC@4 of greater than 20 μg/mL) | Z (key: X: MPC@4 of less than 5 μg/mL; Y: MPC@4 of 5 μg/mL to 20 μg/mL; Z: MPC@4 of greater than 20 μg/mL) | Z (key: X: MPC@4 of less than 5 μg/mL; Y: MPC@4 of 5 μg/mL to 20 μg/mL; Z: MPC@4 of greater than 20 μg/mL) | Z (key: X: MPC@4 of less than 5 μg/mL; Y: MPC@4 of 5 μg/mL to 20 μg/mL; Z: MPC@4 of greater than 20 μg/mL) | Z (key: X: MPC@4 of less than 5 μg/mL; Y: MPC@4 of 5 μg/mL to 20 μg/mL; Z: MPC@4 of greater than 20 μg/mL) | Z (key: X: MPC@4 of less than 5 μg/mL; Y: MPC@4 of 5 μg/mL to 20 μg/mL; Z: MPC@4 of greater than 20 μg/mL) | Z (key: X: MPC@4 of less than 5 μg/mL; Y: MPC@4 of 5 μg/mL to 20 μg/mL; Z: MPC@4 of greater than 20 μg/mL) | Z (key: X: MPC@4 of less than 5 μg/mL; Y: MPC@4 of 5 μg/mL to 20 μg/mL; Z: MPC@4 of greater than 20 μg/mL) | Z (key: X: MPC@4 of less than 5 μg/mL; Y: MPC@4 of 5 μg/mL to 20 μg/mL; Z: MPC@4 of greater than 20 μg/mL) | Y (key: X: MPC@4 of less than 5 μg/mL; Y: MPC@4 of 5 μg/mL to 20 μg/mL; Z: MPC@4 of greater than 20 μg/mL) | Z (key: X: MPC@4 of less than 5 μg/mL; Y: MPC@4 of 5 μg/mL to 20 μg/mL; Z: MPC@4 of greater than 20 μg/mL) | Z (key: X: MPC@4 of less than 5 μg/mL; Y: MPC@4 of 5 μg/mL to 20 μg/mL; Z: MPC@4 of greater than 20 μg/mL) | X (key: X: MPC@4 of less than 5 μg/mL; Y: MPC@4 of 5 μg/mL to 20 μg/mL; Z: MPC@4 of greater than 20 μg/mL) |
| O=C(O)C[C@@H]1CC[C@H](NC(=O)Cn2ccnc2-c2ccccc2)B(O)O1 [Compound 54, 2-((3R,6S)-2-hydroxy-3-(2-(2-phenyl-1H-imidazol-1-yl)acetamido)-1,2-oxaborinan-6-yl)acetic acid] | Z (key: X: MPC@4 of less than 5 μg/mL; Y: MPC@4 of 5 μg/mL to 20 μg/mL; Z: MPC@4 of greater than 20 μg/mL) | Z (key: X: MPC@4 of less than 5 μg/mL; Y: MPC@4 of 5 μg/mL to 20 μg/mL; Z: MPC@4 of greater than 20 μg/mL) | Z (key: X: MPC@4 of less than 5 μg/mL; Y: MPC@4 of 5 μg/mL to 20 μg/mL; Z: MPC@4 of greater than 20 μg/mL) | Z (key: X: MPC@4 of less than 5 μg/mL; Y: MPC@4 of 5 μg/mL to 20 μg/mL; Z: MPC@4 of greater than 20 μg/mL) | Z (key: X: MPC@4 of less than 5 μg/mL; Y: MPC@4 of 5 μg/mL to 20 μg/mL; Z: MPC@4 of greater than 20 μg/mL) | Z (key: X: MPC@4 of less than 5 μg/mL; Y: MPC@4 of 5 μg/mL to 20 μg/mL; Z: MPC@4 of greater than 20 μg/mL) | Z (key: X: MPC@4 of less than 5 μg/mL; Y: MPC@4 of 5 μg/mL to 20 μg/mL; Z: MPC@4 of greater than 20 μg/mL) | Z (key: X: MPC@4 of less than 5 μg/mL; Y: MPC@4 of 5 μg/mL to 20 μg/mL; Z: MPC@4 of greater than 20 μg/mL) | Z (key: X: MPC@4 of less than 5 μg/mL; Y: MPC@4 of 5 μg/mL to 20 μg/mL; Z: MPC@4 of greater than 20 μg/mL) | Z (key: X: MPC@4 of less than 5 μg/mL; Y: MPC@4 of 5 μg/mL to 20 μg/mL; Z: MPC@4 of greater than 20 μg/mL) | Z (key: X: MPC@4 of less than 5 μg/mL; Y: MPC@4 of 5 μg/mL to 20 μg/mL; Z: MPC@4 of greater than 20 μg/mL) | Z (key: X: MPC@4 of less than 5 μg/mL; Y: MPC@4 of 5 μg/mL to 20 μg/mL; Z: MPC@4 of greater than 20 μg/mL) | Z (key: X: MPC@4 of less than 5 μg/mL; Y: MPC@4 of 5 μg/mL to 20 μg/mL; Z: MPC@4 of greater than 20 μg/mL) | Y (key: X: MPC@4 of less than 5 μg/mL; Y: MPC@4 of 5 μg/mL to 20 μg/mL; Z: MPC@4 of greater than 20 μg/mL) |
| Cc1nc2ccccc2n1CCC(=O)N[C@H]1CC[C@@H](CC(=O)O)OB1O [Compound 55, 2-((3R,6S)-2-hydroxy-3-(3-(2-methyl-1H-benzo[d]imidazol-1-yl)propanamido)-1,2-oxaborinan-6-yl)acetic acid] | Z (key: X: MPC@4 of less than 5 μg/mL; Y: MPC@4 of 5 μg/mL to 20 μg/mL; Z: MPC@4 of greater than 20 μg/mL) | Z (key: X: MPC@4 of less than 5 μg/mL; Y: MPC@4 of 5 μg/mL to 20 μg/mL; Z: MPC@4 of greater than 20 μg/mL) | Z (key: X: MPC@4 of less than 5 μg/mL; Y: MPC@4 of 5 μg/mL to 20 μg/mL; Z: MPC@4 of greater than 20 μg/mL) | Z (key: X: MPC@4 of less than 5 μg/mL; Y: MPC@4 of 5 μg/mL to 20 μg/mL; Z: MPC@4 of greater than 20 μg/mL) | Z (key: X: MPC@4 of less than 5 μg/mL; Y: MPC@4 of 5 μg/mL to 20 μg/mL; Z: MPC@4 of greater than 20 μg/mL) | Z (key: X: MPC@4 of less than 5 μg/mL; Y: MPC@4 of 5 μg/mL to 20 μg/mL; Z: MPC@4 of greater than 20 μg/mL) | Z (key: X: MPC@4 of less than 5 μg/mL; Y: MPC@4 of 5 μg/mL to 20 μg/mL; Z: MPC@4 of greater than 20 μg/mL) | Y (key: X: MPC@4 of less than 5 μg/mL; Y: MPC@4 of 5 μg/mL to 20 μg/mL; Z: MPC@4 of greater than 20 μg/mL) | Z (key: X: MPC@4 of less than 5 μg/mL; Y: MPC@4 of 5 μg/mL to 20 μg/mL; Z: MPC@4 of greater than 20 μg/mL) | Z (key: X: MPC@4 of less than 5 μg/mL; Y: MPC@4 of 5 μg/mL to 20 μg/mL; Z: MPC@4 of greater than 20 μg/mL) | Z (key: X: MPC@4 of less than 5 μg/mL; Y: MPC@4 of 5 μg/mL to 20 μg/mL; Z: MPC@4 of greater than 20 μg/mL) | Z (key: X: MPC@4 of less than 5 μg/mL; Y: MPC@4 of 5 μg/mL to 20 μg/mL; Z: MPC@4 of greater than 20 μg/mL) | Z (key: X: MPC@4 of less than 5 μg/mL; Y: MPC@4 of 5 μg/mL to 20 μg/mL; Z: MPC@4 of greater than 20 μg/mL) | X (key: X: MPC@4 of less than 5 μg/mL; Y: MPC@4 of 5 μg/mL to 20 μg/mL; Z: MPC@4 of greater than 20 μg/mL) |
| O=C(O)C[C@@H]1CC[C@H](NC(=O)c2ccc(Cn3cnnn3)cc2)B(O)O1 [Compound 56, 2-((3R,6S)-3-(4-((1H-tetrazol-1-yl)methyl)benzamido)-2-hydroxy-1,2-oxaborinan-6-yl)acetic acid] | Z (key: X: MPC@4 of less than 5 μg/mL; Y: MPC@4 of 5 μg/mL to 20 μg/mL; Z: MPC@4 of greater than 20 μg/mL) | Z (key: X: MPC@4 of less than 5 μg/mL; Y: MPC@4 of 5 μg/mL to 20 μg/mL; Z: MPC@4 of greater than 20 μg/mL) | Z (key: X: MPC@4 of less than 5 μg/mL; Y: MPC@4 of 5 μg/mL to 20 μg/mL; Z: MPC@4 of greater than 20 μg/mL) | Z (key: X: MPC@4 of less than 5 μg/mL; Y: MPC@4 of 5 μg/mL to 20 μg/mL; Z: MPC@4 of greater than 20 μg/mL) | Z (key: X: MPC@4 of less than 5 μg/mL; Y: MPC@4 of 5 μg/mL to 20 μg/mL; Z: MPC@4 of greater than 20 μg/mL) | Z (key: X: MPC@4 of less than 5 μg/mL; Y: MPC@4 of 5 μg/mL to 20 μg/mL; Z: MPC@4 of greater than 20 μg/mL) | Z (key: X: MPC@4 of less than 5 μg/mL; Y: MPC@4 of 5 μg/mL to 20 μg/mL; Z: MPC@4 of greater than 20 μg/mL) | Z (key: X: MPC@4 of less than 5 μg/mL; Y: MPC@4 of 5 μg/mL to 20 μg/mL; Z: MPC@4 of greater than 20 μg/mL) | Z (key: X: MPC@4 of less than 5 μg/mL; Y: MPC@4 of 5 μg/mL to 20 μg/mL; Z: MPC@4 of greater than 20 μg/mL) | Z (key: X: MPC@4 of less than 5 μg/mL; Y: MPC@4 of 5 μg/mL to 20 μg/mL; Z: MPC@4 of greater than 20 μg/mL) | Y (key: X: MPC@4 of less than 5 μg/mL; Y: MPC@4 of 5 μg/mL to 20 μg/mL; Z: MPC@4 of greater than 20 μg/mL) | Z (key: X: MPC@4 of less than 5 μg/mL; Y: MPC@4 of 5 μg/mL to 20 μg/mL; Z: MPC@4 of greater than 20 μg/mL) | Z (key: X: MPC@4 of less than 5 μg/mL; Y: MPC@4 of 5 μg/mL to 20 μg/mL; Z: MPC@4 of greater than 20 μg/mL) | X (key: X: MPC@4 of less than 5 μg/mL; Y: MPC@4 of 5 μg/mL to 20 μg/mL; Z: MPC@4 of greater than 20 μg/mL) |
